## Screening data, single-dose tests

Amino acid sequences for entries named in this document (tags omitted). Residues count along the entry.
UniProt P9WFT3, whole entry: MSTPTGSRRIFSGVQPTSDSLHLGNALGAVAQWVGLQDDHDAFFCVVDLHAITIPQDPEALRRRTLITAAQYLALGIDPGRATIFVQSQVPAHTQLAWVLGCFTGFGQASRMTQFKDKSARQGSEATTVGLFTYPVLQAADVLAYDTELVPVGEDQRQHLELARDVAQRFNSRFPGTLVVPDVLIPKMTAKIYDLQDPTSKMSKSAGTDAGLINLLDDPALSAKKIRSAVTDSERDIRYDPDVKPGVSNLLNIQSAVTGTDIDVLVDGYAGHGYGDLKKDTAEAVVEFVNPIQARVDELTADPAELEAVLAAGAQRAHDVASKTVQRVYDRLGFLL
UniProt P9WPC5, whole entry: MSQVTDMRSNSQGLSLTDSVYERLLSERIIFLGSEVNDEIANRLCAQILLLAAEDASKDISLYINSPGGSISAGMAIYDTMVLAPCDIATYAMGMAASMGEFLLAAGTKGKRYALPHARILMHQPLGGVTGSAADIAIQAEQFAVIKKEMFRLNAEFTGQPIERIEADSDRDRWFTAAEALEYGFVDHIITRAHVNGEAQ
UniProt P9WPC3, whole entry partner: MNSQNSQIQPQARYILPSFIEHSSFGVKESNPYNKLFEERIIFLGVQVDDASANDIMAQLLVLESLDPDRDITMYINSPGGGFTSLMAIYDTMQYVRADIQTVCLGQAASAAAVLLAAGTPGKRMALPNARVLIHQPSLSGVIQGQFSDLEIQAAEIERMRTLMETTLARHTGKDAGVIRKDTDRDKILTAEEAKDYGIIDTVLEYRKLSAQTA
UniProt I6X8D2, whole entry: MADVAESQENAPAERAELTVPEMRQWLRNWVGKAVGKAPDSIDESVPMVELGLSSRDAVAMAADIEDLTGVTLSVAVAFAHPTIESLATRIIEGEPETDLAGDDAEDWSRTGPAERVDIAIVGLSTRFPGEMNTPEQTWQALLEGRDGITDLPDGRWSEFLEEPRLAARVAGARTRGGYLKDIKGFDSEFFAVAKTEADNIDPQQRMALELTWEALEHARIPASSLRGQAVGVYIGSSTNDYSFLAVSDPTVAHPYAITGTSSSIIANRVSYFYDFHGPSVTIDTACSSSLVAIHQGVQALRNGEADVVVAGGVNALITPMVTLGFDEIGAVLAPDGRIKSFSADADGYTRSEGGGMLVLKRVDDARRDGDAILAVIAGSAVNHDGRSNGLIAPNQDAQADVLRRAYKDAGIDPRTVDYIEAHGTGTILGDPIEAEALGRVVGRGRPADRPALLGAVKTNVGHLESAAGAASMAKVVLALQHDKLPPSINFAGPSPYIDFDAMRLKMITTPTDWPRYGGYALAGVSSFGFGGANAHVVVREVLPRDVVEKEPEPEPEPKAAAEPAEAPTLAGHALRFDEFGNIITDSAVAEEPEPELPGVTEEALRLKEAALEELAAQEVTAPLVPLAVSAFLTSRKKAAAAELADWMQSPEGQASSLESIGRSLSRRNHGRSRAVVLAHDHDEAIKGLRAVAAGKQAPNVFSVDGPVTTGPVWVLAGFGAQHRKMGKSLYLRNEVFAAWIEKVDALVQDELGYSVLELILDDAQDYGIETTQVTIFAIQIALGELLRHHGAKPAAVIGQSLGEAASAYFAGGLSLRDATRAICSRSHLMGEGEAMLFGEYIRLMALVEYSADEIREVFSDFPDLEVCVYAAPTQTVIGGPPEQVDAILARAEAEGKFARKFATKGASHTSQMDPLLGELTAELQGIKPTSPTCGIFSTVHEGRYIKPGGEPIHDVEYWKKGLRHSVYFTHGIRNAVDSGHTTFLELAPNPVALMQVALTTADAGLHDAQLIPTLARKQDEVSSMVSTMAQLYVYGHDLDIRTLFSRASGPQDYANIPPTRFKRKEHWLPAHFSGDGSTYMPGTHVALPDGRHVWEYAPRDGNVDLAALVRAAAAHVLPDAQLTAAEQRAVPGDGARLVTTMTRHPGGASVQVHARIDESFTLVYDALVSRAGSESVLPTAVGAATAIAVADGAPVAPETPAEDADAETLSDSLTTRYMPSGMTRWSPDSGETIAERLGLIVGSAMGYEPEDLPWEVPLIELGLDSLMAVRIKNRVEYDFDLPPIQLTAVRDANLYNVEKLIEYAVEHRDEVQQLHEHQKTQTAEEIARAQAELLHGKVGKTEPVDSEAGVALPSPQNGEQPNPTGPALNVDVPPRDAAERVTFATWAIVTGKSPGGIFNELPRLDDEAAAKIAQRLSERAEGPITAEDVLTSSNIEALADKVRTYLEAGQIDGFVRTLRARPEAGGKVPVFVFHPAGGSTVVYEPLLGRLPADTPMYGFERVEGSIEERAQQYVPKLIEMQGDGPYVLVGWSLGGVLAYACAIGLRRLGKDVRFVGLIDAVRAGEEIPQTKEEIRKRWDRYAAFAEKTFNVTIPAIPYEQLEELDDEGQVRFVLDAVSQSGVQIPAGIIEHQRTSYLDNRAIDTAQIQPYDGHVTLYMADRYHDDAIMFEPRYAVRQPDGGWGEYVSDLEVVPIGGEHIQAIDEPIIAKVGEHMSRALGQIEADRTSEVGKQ
UniProt Q8IDJ8, 1-583: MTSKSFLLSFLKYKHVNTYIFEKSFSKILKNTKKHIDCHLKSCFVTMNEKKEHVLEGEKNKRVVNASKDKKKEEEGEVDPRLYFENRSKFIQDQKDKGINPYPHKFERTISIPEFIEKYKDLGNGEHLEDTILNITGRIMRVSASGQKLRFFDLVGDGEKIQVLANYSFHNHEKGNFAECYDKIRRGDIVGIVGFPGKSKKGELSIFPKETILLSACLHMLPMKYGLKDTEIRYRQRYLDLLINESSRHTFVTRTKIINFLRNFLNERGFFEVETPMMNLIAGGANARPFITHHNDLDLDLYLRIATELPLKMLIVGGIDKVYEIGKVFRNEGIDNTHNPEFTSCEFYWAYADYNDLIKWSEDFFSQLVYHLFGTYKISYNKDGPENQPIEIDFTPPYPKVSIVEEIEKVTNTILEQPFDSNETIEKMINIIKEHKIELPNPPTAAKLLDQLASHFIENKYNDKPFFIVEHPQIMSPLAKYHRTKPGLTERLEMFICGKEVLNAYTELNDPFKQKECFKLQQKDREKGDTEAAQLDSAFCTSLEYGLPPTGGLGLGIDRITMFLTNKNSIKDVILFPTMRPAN

Source: ChEMBL document CHEMBL3988442, “University of Dundee, Small-Polar-MMV Screening Library” (2021).

MtTrpRS: 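Tryptophan-tRNA ligase, Mycobacterium tuberculosis (UniProt P9WFT3). Enzyme assay of tryptophanyl-tRNA synthetase; the read-out is not stated. Concentration: 10 µM. Direction is not recorded; retested compounds ran higher, which suggests that high means inhibition. About 65,000 compounds were tested under these conditions; 0.098% (about 64) showed 50% or more at least once.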
ClpP1P2: 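ClpP1P2, Mycobacterium tuberculosis (UniProt P9WPC5 and UniProt P9WPC3). Protease assay of ClpP1P2, read by the AMC dye that it sets free. Concentration: 50 µM. Higher reads as stronger inhibition, judged from the few compounds that gave an IC50. Most other retested compounds had strongly negative values. About 69,000 compounds were tested under these conditions; 0.015% (about 10) showed 50% or more at least once.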
Pks13 thioesterase: 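Enzyme assay of the thioesterase domain of polyketide synthase 13; the read-out is not stated. Target: Polyketide synthase Pks13, Mycobacterium tuberculosis (UniProt I6X8D2). Concentration: 30 µM. The record gives no direction; the compounds picked for IC50 retests had high values, so higher reads as stronger inhibition. Size under these conditions: about 67,000 compounds, about 300 of them at 50% or above in at least one test.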
PfKRS1: 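Enzyme assay of the cytosolic lysyl-tRNA synthetase in 384-well plates, read by luminescence. Target: Lysine-tRNA ligase, Plasmodium falciparum 3D7 (UniProt Q8IDJ8). Tested at 30 µM. Direction is inferred from only a few compounds that gave an IC50; most scored high, so higher reads as stronger inhibition. About 69,000 compounds were tested under these conditions; 0.071% (about 49) showed 50% or more at least once.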

Each number is a percent effect as filed.
The controls that fix the scale are not given in the record; negative values are as filed.
Compounds were drawn at random from those tested, without regard to their results.
A dash means the value is not listed here; it may have been measured.

| # | structure | MtTrpRS | ClpP1P2 | Pks13 thioesterase | PfKRS1 |
|---|---|---|---|---|---|
| 1 | `CCc1cnccc1C(=O)Nc1ccc(C(N)=O)nc1` | -3.406 | 4.501 | -42.95 | 5.013 |
| 2 | `CCS(=O)(=O)N1Cc2nccn2CC(CN2CCCC2)C1` (stereo unspecified) | -8.411 | 0.1314 | -4.984 | 0.1476 |
| 3 | `CN(C)c1cc(C(=O)N2CCCN(Cc3nccn3C)CC2)ccn1` | 3.742 | -17.96 | -23.15 | -1.222 |
| 4 | `CN1CCO[C@@H]2CN(S(=O)(=O)c3ccc(F)cc3)CC[C@@H]2C1` | 0.7757 | -0.9908 | -30.08 | 4.175 |
| 5 | `CCc1noc(CN(CC)C(=O)c2ccc3ncsc3c2)n1` | -5.693 | 9.809 | -0.1019 | 3.997 |
| 6 | `Cc1nc(CO[C@H]2CN(C(=O)c3ccc[nH]3)[C@@H]3COC[C@H]23)cs1` | -5.478 | -0.9657 | -11.91 | 7.2 |
| 7 | `Cc1occc1CNC(=O)C1(C)CCCN(C(=O)c2ccccc2)C1` (stereo unspecified) | 11.03 | -8.372 | -9.418 | -0.2937 |
| 8 | `c1ccc(Cc2noc(CN3CCOC(Cn4cccn4)C3)n2)cc1` (stereo unspecified) | -3.764 | -25.53 | -10.74 | -1.518 |
| 9 | `COc1cc(C(=O)NS(=O)(=O)c2cccc(C#N)c2)cc(OC)c1Br` | -6.97 | -21.17 | -8.41 | 1.249 |
| 10 | `COc1cccc(-n2nnc(C(=O)N3CCC(C(N)=O)CC3)c2C)c1` | -4.813 | 0.06007 | -22.08 | -0.9839 |
| 11 | `CN(C(=O)c1cccc(C(=O)NCC(F)(F)F)c1)c1ccccc1` | -2.071 | -4.02 | -19.12 | -7.967 |
| 12 | `COc1cc(C)c2c(c1C)C[C@@H](C(C)C(=O)O)CC2` (stereo partly specified) | -5.302 | 3.35 | -5.661 | 2.218 |
| 13 | `CC(Nc1ncnc2sccc12)c1cnn(C)c1` (stereo unspecified) | 2.982 | -8.232 | -18.9 | 3.742 |
| 14 | `CN(CC(=O)N1CCC(Oc2ccc(C(F)(F)F)cn2)CC1)S(C)(=O)=O` | -1.187 | -8.236 | -15.63 | 1.343 |
| 15 | `O=C(NC1CCN(Cc2cccc3c2OCCO3)CC1)c1cccs1` | 2.3 | -10.05 | -22.24 | -0.2355 |
| 16 | `CC(C)(C)CC(=O)NCCn1ccc(-c2ccncc2)n1` | 4.118 | -11.02 | 12.58 | 0.025 |
| 17 | `CC(=O)C(Cc1ccccc1)NC(=O)CSc1nccn1C1CC1` (stereo unspecified) | -0.07764 | -2.147 | -30.59 | 8.283 |
| 18 | `O=C(Cc1ccccc1)NCCNC(=O)c1scnc1Cl` | -4.231 | -10.48 | -0.9739 | 2.877 |
| 19 | `N#Cc1ccc(CN2C(=O)c3ccccc3CS2(=O)=O)c(F)c1` | -2.225 | -8.537 | 27.95 | 7.876 |
| 20 | `CCc1cnc(N2C[C@@H]3[C@@H](C(=O)NCC(C)C)CCS(=O)(=O)[C@@H]3C2)nc1` | -0.5162 | -8.798 | -36.73 | 2.854 |
| 21 | `Cc1cnn(C2CN(Cc3noc(-c4ccccc4)n3)C2)c1` | 1.821 | -2.991 | -7.945 | 6.066 |
| 22 | `Cc1cnn(C2CN(c3ncnc4[nH]ccc34)C2)c1` | -10.63 | 1.505 | -29.9 | 9.396 |
| 23 | `CN1CCN(c2nsc(-c3ccccc3)c2C#N)CC1` | -8.607 | -12.21 | -6.923 | -0.2346 |
| 24 | `CCS(=O)(=O)CCN(C)C(=O)NC(C)c1ccc(C)s1` (stereo unspecified) | 0.5939 | 0.1025 | -1.863 | 4.869 |
| 25 | `OC1(CN2CCCCC2)CCN(c2cc(C(F)(F)F)ccn2)C1` (stereo unspecified) | -3.132 | 0.3255 | 4.689 | 1.746 |
| 26 | `N[C@@H]1CC[C@@H](Nc2nccc(CCC(F)(F)F)n2)C1` | -6 | -1.026 | 15.58 | 1.377 |
| 27 | `CC(=O)N1CCN(CCCOc2ccccc2F)CC(C(N)=O)C1` (stereo unspecified) | -4.549 | -1.337 | 16.76 | -0.03039 |
| 28 | `Cc1ccc(-c2nnc(CN3CCOC(Cn4cncn4)C3)o2)cc1` (stereo unspecified) | -1.375 | -10.85 | -4.582 | -0.5656 |
| 29 | `COc1ccc(-c2noc(CN3CCCC3Cn3cccn3)n2)cc1` (stereo unspecified) | -4.231 | -26.12 | 7.295 | 1.133 |
| 30 | `CC(C)c1nccn1C1CCCN(C(=O)c2cnn(C)c2C2CC2)C1` (stereo unspecified) | 0.2924 | 9.022 | -6.401 | 4.285 |
| 31 | `CC(C)(C)c1nc(CNC2CCCN(c3cccnn3)C2)no1` (stereo unspecified) | -5.583 | -12.26 | 7.565 | 0.1169 |
| 32 | `O=S(=O)(C1CC1)N1Cc2nccn2CC(Cn2cncn2)C1` (stereo unspecified) | - | -1.568 | 6.136 | 4.123 |
| 33 | `CC(C)CC(C)N(C)C(=O)CCn1cccn1` (stereo unspecified) | -4.935 | -1.972 | -22.91 | 0.4855 |
| 34 | `CS(=O)(=O)NCCC(=O)N1CCCC1c1noc(C2CC2)n1` (stereo unspecified) | -3.336 | -22 | -14.97 | 1.053 |
| 35 | `c1cc(CN2C[C@H](OCC3CCOCC3)[C@H]3COC[C@H]32)cs1` | - | -3.632 | 1.549 | 5.439 |
| 36 | `CN(CC1CCOCC1)C(=O)NCCCN1CCCCC1` | -2.785 | 3.234 | -13.19 | 4.239 |
| 37 | `CCOC(C)c1nc(CN2CCC(C3OCCO3)CC2)cs1` (stereo unspecified) | -4.15 | -0.0216 | - | 0.6174 |
| 38 | `Cc1cc(CNc2cc(Cl)ccc2C)no1` | 20.32 | -22.37 | -4.856 | 2.215 |
| 39 | `Cc1cc(S(=O)(=O)N(CCO)C2CC2)ccc1F` | -3.374 | -9.504 | -16.95 | 5.524 |
| 40 | `CN1C[C@H](O)C[C@H]1c1nc(-c2ccc3c(c2)OCO3)no1` | -12.74 | -17.94 | -2.968 | 5.127 |
| 41 | `CSc1cccc(CN(C)C(=O)C2CC(=O)N(CCN(C)C)C2)c1` (stereo unspecified) | -1.243 | -0.8558 | -12.26 | -2.959 |
| 42 | `Cc1cccc(CN2C[C@@H]3OCCN(C)[C@@H]3C2)n1` | -4.44 | 8.44 | -29.92 | 7.189 |
| 43 | `COC1COC2(CCN(c3ccc(C#N)cc3)CC2)C1` (stereo unspecified) | -7.654 | -13.32 | -7.006 | 3.344 |
| 44 | `CCc1nnc2n1CCN(Cc1noc(-c3cccc(C)c3)n1)C2` | 13.68 | -6.121 | 9.855 | -1.892 |
| 45 | `O=C(NCCCc1ccco1)c1cnc(N2CCOCC2)nc1` | 0.6135 | -10.05 | 4.33 | 4.83 |
| 46 | `Cc1cnn(CC2CN(Cc3cccc(C(=O)N(C)C)c3)CCO2)c1` (stereo unspecified) | 0.5596 | 21.8 | -10.13 | 3.93 |
| 47 | `CCN1CCN(CCNC(=O)c2ccn(-c3ccc(F)cc3)n2)CC1` | -4.944 | -22.36 | -10.37 | 0.5434 |
| 48 | `COCC(NC(=O)c1ccco1)c1cccc(C(F)(F)F)c1` (stereo unspecified) | -2.389 | -11.53 | -19.47 | 7.587 |
| 49 | `O=C(c1cccc(OCc2cscn2)c1)N1CCOCC1` | 0.1337 | -1.279 | -27.36 | -0.1673 |
| 50 | `Cc1cccc(C(=O)N2CCCCC2c2ccc(CN(C)C)cc2)c1` (stereo unspecified) | -2.916 | 6.031 | 5.143 | 11.46 |
| 51 | `CC1(C(N)=O)CN(CC2CCC2)CCO1` (stereo unspecified) | -7.388 | -3.086 | 3.096 | 2.052 |
| 52 | `CC1CCN(c2ccc(C(=O)N3CCCC3c3nncn3C)cn2)CC1` (stereo unspecified) | 5.419 | 3.643 | -19.49 | 0.02236 |
| 53 | `O=C(Cn1cccn1)N1CCC(Cn2cc(-c3ccsc3)nn2)CC1` | -5.013 | 0.7579 | -23.02 | 5.061 |
| 54 | `Cc1cnc(N2CC3(CCN(Cc4cccnc4)C3)C2)nc1` | -3.779 | -5.752 | -15.96 | 5.519 |
| 55 | `Cc1occc1C(=O)N1CCC2(CCN(Cc3nccs3)C2)CC1` | 0.08285 | -15.33 | -1.645 | -4.005 |
| 56 | `CC(C)CCn1ccc(NC(=O)N2CCCC2C(C)(C)O)n1` (stereo unspecified) | -1.548 | -2.653 | -31.21 | -0.9628 |
| 57 | `CC(=O)N(Cc1noc(C)n1)C1CCN(Cc2cc(C)on2)C1` (stereo unspecified) | 0.07819 | 21.29 | -15.48 | 0.5437 |
| 58 | `Cc1cc(CN2CC[C@H]3C(=O)N(c4ccccc4)CCO[C@H]3C2)no1` | 0.5286 | 19.2 | -20.14 | 1.251 |
| 59 | `O=c1[nH]nc(SCC2CCCCO2)n1C1CC1` (stereo unspecified) | 4.224 | 0.112 | -23.14 | -0.09991 |
| 60 | `Cc1ccc(OCCCSC2=NCCN2)cc1` | -3.32 | 1.445 | -17.13 | 1.924 |
| 61 | `Cc1nn(CC(=O)N2CCCCC2Cn2cccn2)c(C)c1Cl` (stereo unspecified) | -1.876 | -14.35 | -2.038 | 9.164 |
| 62 | `CCCNC(=O)c1nn(CC)cc1NC(=O)c1c(C)nn(C)c1C` | 3.083 | 13.46 | -17.71 | 8.259 |

Once more, the final 7:

{"structure": "CC(C)CCn1ccc(NC(=O)N2CCCC2C(C)(C)O)n1", "stereo": "stereo unspecified", "MtTrpRS": -1.548, "ClpP1P2": -2.653, "Pks13 thioesterase": -31.21, "PfKRS1": -0.9628}
{"structure": "CC(=O)N(Cc1noc(C)n1)C1CCN(Cc2cc(C)on2)C1", "stereo": "stereo unspecified", "MtTrpRS": 0.07819, "ClpP1P2": 21.29, "Pks13 thioesterase": -15.48, "PfKRS1": 0.5437}
{"structure": "Cc1cc(CN2CC[C@H]3C(=O)N(c4ccccc4)CCO[C@H]3C2)no1", "MtTrpRS": 0.5286, "ClpP1P2": 19.2, "Pks13 thioesterase": -20.14, "PfKRS1": 1.251}
{"structure": "O=c1[nH]nc(SCC2CCCCO2)n1C1CC1", "stereo": "stereo unspecified", "MtTrpRS": 4.224, "ClpP1P2": 0.112, "Pks13 thioesterase": -23.14, "PfKRS1": -0.09991}
{"structure": "Cc1ccc(OCCCSC2=NCCN2)cc1", "MtTrpRS": -3.32, "ClpP1P2": 1.445, "Pks13 thioesterase": -17.13, "PfKRS1": 1.924}
{"structure": "Cc1nn(CC(=O)N2CCCCC2Cn2cccn2)c(C)c1Cl", "stereo": "stereo unspecified", "MtTrpRS": -1.876, "ClpP1P2": -14.35, "Pks13 thioesterase": -2.038, "PfKRS1": 9.164}
{"structure": "CCCNC(=O)c1nn(CC)cc1NC(=O)c1c(C)nn(C)c1C", "MtTrpRS": 3.083, "ClpP1P2": 13.46, "Pks13 thioesterase": -17.71, "PfKRS1": 8.259}